The match of structure and compound is tentative.
How the values were obtained:
Assay type in all cases: cell-based
alpha 2B receptor = alpha 2B receptor (Homo sapiens, UniProt P18089); assay: RSAT assay (Receptor Selection and Amplification Technology), Alpha 2B; settings: for Intrinsic Activity efficacy Alpha 2B: value in parentheses, ratio of maximal effect to that of brimonidine, Table 1
Alpha 1A = Alpha 1A (Homo sapiens, UniProt P35348); assay: RSAT assay (Receptor Selection and Amplification Technology), Alpha 1A; settings: value in parentheses, ratio of maximal effect of drug to maximal effect of standard full agonist
alpha 2C receptor = alpha 2C receptor (Homo sapiens, UniProt P18825); assay: RSAT assay (Receptor Selection and Amplification Technology), Alpha 2C; settings: value in parentheses, ratio of maximal effect to that of brimonidine

Protein sequences, listed by entry. Tags and fused reporters are not part of them.
UniProt P18089, whole entry: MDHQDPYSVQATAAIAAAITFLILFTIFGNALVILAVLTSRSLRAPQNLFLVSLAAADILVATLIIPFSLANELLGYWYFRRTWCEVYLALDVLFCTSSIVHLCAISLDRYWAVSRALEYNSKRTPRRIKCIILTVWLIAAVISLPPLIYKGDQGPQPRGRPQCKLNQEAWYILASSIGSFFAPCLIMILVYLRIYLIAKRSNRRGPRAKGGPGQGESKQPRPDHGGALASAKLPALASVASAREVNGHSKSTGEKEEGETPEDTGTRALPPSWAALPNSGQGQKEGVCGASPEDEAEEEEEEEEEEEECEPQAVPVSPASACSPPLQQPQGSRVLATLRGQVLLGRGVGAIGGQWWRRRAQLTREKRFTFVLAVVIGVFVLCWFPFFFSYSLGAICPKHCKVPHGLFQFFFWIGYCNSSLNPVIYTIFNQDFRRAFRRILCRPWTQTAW
UniProt P35348, whole entry: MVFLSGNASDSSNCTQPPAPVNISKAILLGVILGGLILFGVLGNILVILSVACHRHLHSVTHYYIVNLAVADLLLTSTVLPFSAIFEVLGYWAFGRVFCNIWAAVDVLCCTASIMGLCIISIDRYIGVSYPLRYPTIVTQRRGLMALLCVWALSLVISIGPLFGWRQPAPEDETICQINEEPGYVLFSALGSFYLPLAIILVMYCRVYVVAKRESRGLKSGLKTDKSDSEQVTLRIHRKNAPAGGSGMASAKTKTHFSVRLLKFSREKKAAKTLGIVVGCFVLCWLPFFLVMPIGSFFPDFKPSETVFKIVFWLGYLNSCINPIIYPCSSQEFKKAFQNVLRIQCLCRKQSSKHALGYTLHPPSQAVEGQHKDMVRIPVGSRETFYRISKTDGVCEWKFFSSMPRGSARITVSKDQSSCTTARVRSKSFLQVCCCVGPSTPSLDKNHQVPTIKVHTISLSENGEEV
UniProt P18825, whole entry: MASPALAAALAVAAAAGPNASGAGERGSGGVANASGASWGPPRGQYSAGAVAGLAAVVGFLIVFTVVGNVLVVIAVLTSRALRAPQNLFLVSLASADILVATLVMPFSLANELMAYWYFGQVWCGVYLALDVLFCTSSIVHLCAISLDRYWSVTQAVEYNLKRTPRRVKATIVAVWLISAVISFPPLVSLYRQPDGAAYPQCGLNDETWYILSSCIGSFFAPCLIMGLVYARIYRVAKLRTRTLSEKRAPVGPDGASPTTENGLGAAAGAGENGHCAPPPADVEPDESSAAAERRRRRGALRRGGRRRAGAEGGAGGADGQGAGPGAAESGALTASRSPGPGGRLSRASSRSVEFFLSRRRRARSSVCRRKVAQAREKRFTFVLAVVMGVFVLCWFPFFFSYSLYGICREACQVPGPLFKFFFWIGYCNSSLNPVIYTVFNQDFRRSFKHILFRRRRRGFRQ

| Structure (SMILES) | Intrinsic Activity efficacy Alpha 2B (alpha 2B receptor) | Intrinsic Activity efficacy Alpha 1A (Alpha 1A) | Intrinsic Activity efficacy Alpha 2C (alpha 2C receptor) | EC50 (alpha 2B receptor; read-out: potency nM (EC50) Alpha 2B, transfected NIH-3T3 cells with Gq/i5, Table 1) [nM] |
| --- | --- | --- | --- | --- |
| COc1ccccc1C(Cc1ccncc1)N=C1NCCS1 (stereo not shown) | 1.0 | – | – | – |
| Clc1ccccc1C(Cc1ccncc1)N=C1NCCS1 (stereo not shown) | – | 1.0 | 1.0 | – |
| Clc1ccccc1C(Cc1ccncc1)N=C1NCCO1 (stereo not shown) | 0.9 | – | – | – |
| COc1ccccc1C(Cc1cccnc1)N=C1NCCN1 (stereo not shown) | 0.67 | 0.92 | – | 10 |

Reference: patent US8362022B2, “Selective subtype alpha 2 adrenergic agents and methods for use thereof” (Allergan, Inc., priority 2008, dated 2013)
